± gives the uncertainty stated by the source. The uncertainty is large for many entries.
Test: self-splicing fitness, log relative to wild type (ln ratio); higher = more splicing; Tetrahymena group I intron in knt gene, E. coli kanamycin selection, DiMSum; sequences stand for … in CUCUCU…GGAGGGAAAAGUUAUCAGGCAUGCACCUGGUAGCUAGUCUUUAAACCAAUAGAUUGCAUCGGUUUAAAAGGCAAGACCGUCAAAUUGCGGGAAAGGGGUCAACAGCCGUUCAGUACCAAGUCUCAGGGGAAACUUUGAGAUGGCCUUGCAAAGGGUAUGGUAAUAAGCUGACGGACAUGGUCCUAACCACGCAGCCAAGUCCUAAGUCAACAGAUCUUCUGUUGAUAUGGAUGCAGUUCACAGACUAAAUGUCGGUCGGGGAAGAUGUAUUCUUCUCAUAAGAUAUAGUCGGACCUCUCCUUAAUGGGAGCUAGCGGAUGAAGUGAUGCAACACUGGAGCCGCUGGGAACUAAUUUGUAUGCGAAAGUAUAUUGAUUAGUUUUGGAGUACUCGUGGUCG
Summary of the method: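 Six replicate transformations of E. coli BL21(DE3) with a pET-22b(+) library were grown overnight at 37°C or 30°C. The library randomised all eight P1ex-region intron nucleotides, the intron lying in the knt kanamycin-resistance gene, and plates were LB agar with or without 25 μg/mL kanamycin plus 100 μg/mL carbenicillin, 50 μM IPTG and 0.2% rhamnose. Pooled colonies were amplicon-sequenced on an Illumina HiSeq 2500, and fitness is the DiMSum error-weighted combination of wild-type-normalised replicate fold changes, kanamycin versus none.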

Sequence | self-splicing fitness (ln) (30 °C) | self-splicing fitness (ln) (37 °C)
GACCAGCAAUAUUACGCCCC | -1.35 ± 0.17 | -0.908 ± 0.17
CAUCAGCAAUAUUACGAAAA | -4.02 ± 0.52 | 
GGCGAGCAAUAUUACGUGCC | -3.81 ± 1 | 
UUUGAGCAAUAUUACGGUGU | -4.23 ± 0.52 | 
CGCGAGCAAUAUUACGUCCU | -0.995 ± 1.2 | 
ACGCAGCAAUAUUACGGAGC | -4.9 ± 0.59 | 
AUUAAGCAAUAUUACGAGGG | -4.25 ± 0.51 | 
AUGGAGCAAUAUUACGUAGC | -4.44 ± 1 | 
UCAGAGCAAUAUUACGUUAU | -2.84 ± 0.19 | -3.42 ± 0.4
CACGAGCAAUAUUACGCCGA |  | -3.5 ± 0.73
UGUGAGCAAUAUUACGUCAU | -4.4 ± 1 | 
GUCGAGCAAUAUUACGACGG | -3.93 ± 0.59 | 
CCCCAGCAAUAUUACGGAGC | -3.08 ± 0.15 | -2.83 ± 0.23
UUGUAGCAAUAUUACGGGAG | -4.37 ± 0.59 | 
GUGGAGCAAUAUUACGAAUU | -3.77 ± 0.75 | 
UAGGAGCAAUAUUACGUGGC | -3.35 ± 0.6 | 
UAAGAGCAAUAUUACGGACU | -3.72 ± 1 | 
GUCGAGCAAUAUUACGAACU | -1.01 ± 0.58 | -1.31 ± 0.5
AAUGAGCAAUAUUACGCCGC | -2.95 ± 0.54 | 
AGCCAGCAAUAUUACGCCGA | -2.61 ± 0.51 | 
UGGAAGCAAUAUUACGCAUG | -1.02 ± 0.096 | -0.486 ± 0.12
GGGCAGCAAUAUUACGCACC | -3.23 ± 1 | 
AUACAGCAAUAUUACGGACU | -0.732 ± 0.06 | 0.141 ± 0.09
AGCCAGCAAUAUUACGUUUC |  | -3.13 ± 0.52

Single records, as listed above.
UUUGAGCAAUAUUACGGUGU is listed with self-splicing fitness (ln) (30 °C) = -4.23 ± 0.52
AGCCAGCAAUAUUACGUUUC is listed with self-splicing fitness (ln) (37 °C) = -3.13 ± 0.52
AUACAGCAAUAUUACGGACU is listed with self-splicing fitness (ln) (30 °C) = -0.732 ± 0.06; self-splicing fitness (ln) (37 °C) = 0.141 ± 0.09

(next part)

Sequence | self-splicing fitness (ln) (30 °C) | self-splicing fitness (ln) (37 °C)
UCCGAGCAAUAUUACGAAAA | -4.4 ± 1 | 
CGACAGCAAUAUUACGAGGA | -3.91 ± 0.2 | -2.53 ± 0.18
UUUCAGCAAUAUUACGCUUA | -0.378 ± 0.086 | 0.0227 ± 0.12
UAUCAGCAAUAUUACGUUGA | -2.15 ± 0.18 | -1.95 ± 0.18
CAUCAGCAAUAUUACGAUUC | -1.62 ± 0.071 | -0.269 ± 0.073
UGGGAGCAAUAUUACGCAGU | -4.22 ± 0.59 | -3.15 ± 0.61
CGGUAGCAAUAUUACGCAAU | -4.53 ± 0.51 | 
GUCAAGCAAUAUUACGUCCG | -5.1 ± 0.71 | 
GCUCAGCAAUAUUACGAGUC |  | -2.48 ± 0.77
AGGAAGCAAUAUUACGCUGA | -2.96 ± 0.23 | -1.97 ± 0.22
AAAAAGCAAUAUUACGGCUU | -0.00557 ± 0.049 | 0.259 ± 0.066
ACCCAGCAAUAUUACGGUCC | -1.61 ± 0.085 | -1.4 ± 0.12
UCGGAGCAAUAUUACGCGAC | -3.31 ± 1 | 
UUCAAGCAAUAUUACGUAUU | -3.82 ± 0.17 | -2.66 ± 0.16
GAUAAGCAAUAUUACGAACU | -0.896 ± 0.079 | -0.073 ± 0.11
GGUCAGCAAUAUUACGCGCU | -3.98 ± 0.74 | 
AAAGAGCAAUAUUACGCUCU | -4.64 ± 0.59 | 
GUCAAGCAAUAUUACGGCCG |  | -2.57 ± 1.1
GGAUAGCAAUAUUACGAGAA | -1.79 ± 0.93 | -1.42 ± 0.5
CACAAGCAAUAUUACGAGCA | -2.96 ± 0.2 | -2.28 ± 0.17
GCGGAGCAAUAUUACGAGUC | -3.06 ± 0.61 | 
ACUCAGCAAUAUUACGAUCU | -0.0985 ± 0.064 | 0.407 ± 0.08
GGAGAGCAAUAUUACGCAGG | -5.41 ± 0.71 | -4.29 ± 0.59

Reference: the supplement of paper PMC7877785
